Assay results taken from PMC10138577, “Prenylated Flavonoids with Selective Toxicity against Human Cancers” (International Journal of Molecular Sciences, 2023).

Key:
Format in all cases: cell-based
[1] = tested on: MCF-7 human breast adenocarcinoma cells; test: In vitro antiproliferative assay (SRB), MCF-7
Text: (§1) The following established in vitro cell lines were applied: human breast adenocarcinoma (MCF-7 and SK-BR-3), human breast ductal carcinoma (T47D), human prostate adenocarcinoma (PC-3), human prostate carcinoma (Du145), human colorectal adenocarcinoma (HT-29 and LoVo), doxorubicin-resistant human colorectal adenocarcinoma (LoVo/Dx), human myelomonocytic leukemia (MV-4-11), human lung adenocarcinoma (A549), normal murine embryonic fibroblasts (BALB/3T3) and human lung microvascular endothelial (HLMEC). All the cell lines were obtained from the American Type Culture Collection (Rockville, MD, USA) except for LoVo and LoVo/DX, which were received from the Technical University of Gdańsk, Poland, courtesy of Prof. E. Borowski. All the cell lines were maintained in the Institute of Immunology and Experimental Therapy, Wroclaw, Poland. […]
(§2) The details of this technique were described by Skehan et al.. […] The unbound dye was removed by washing the plates five times with 1% acetic acid, whereas the stain bound to the cells was extracted with 150 µL of 10 mM unbuffered Tris base for determination of the optical density at a 540 nm wavelength in a computer-interfaced, 96-well microtiter plate reader–Multiskan FC photometer (Thermo Scientific, Waltham, MA, USA). The background optical density was measured in the wells filled with culture medium, without the cells. […]

[2] = tested on: SK-BR-3 human breast adenocarcinoma cells; test: In vitro antiproliferative assay (SRB), SK-BR-3
Text: as §1, §2

[3] = tested on: T47D human breast ductal carcinoma cells; test: In vitro antiproliferative assay (SRB), T47D
Text: as §1, §2

[4] = tested on: HT-29 human colorectal adenocarcinoma cells; test: In vitro antiproliferative assay (SRB), HT-29
Text: (§3) The following established in vitro cell lines were applied: human breast adenocarcinoma (MCF-7 and SK-BR-3), human breast ductal carcinoma (T47D), human prostate adenocarcinoma (PC-3), human prostate carcinoma (Du145), human colorectal adenocarcinoma (HT-29 and LoVo), doxorubicin-resistant human colorectal adenocarcinoma (LoVo/Dx), human myelomonocytic leukemia (MV-4-11), human lung adenocarcinoma (A549), normal murine embryonic fibroblasts (BALB/3T3) and human lung microvascular endothelial (HLMEC). All the cell lines were obtained from the American Type Culture Collection (Rockville, MD, USA) except for LoVo and LoVo/DX, which were received from the Technical University of Gdańsk, Poland, courtesy of Prof. E. Borowski. All the cell lines were maintained in the Institute of Immunology and Experimental Therapy, Wroclaw, Poland. The cells were cultured in the following media: DMEM medium (BALB/3T3), Eagle medium (MCF-7, SK-BR-3, Du145), RPMI medium (HLMEC, MV-4-11) or RPMI 1640 + Opti-MEM (1:1) medium (A549, T47D, LoVo, LoVo/Dx, PC-3, HT-29). The DMEM medium was supplemented with 2 mM L-glutamine and 10% fetal bovine serum. The Eagle medium was supplemented with 4 mM L-glutamine, 10% fetal bovine serum, 1 mM sodium pyruvate for Du145 cells or 2 mM L-glutamine, 1% amino acids and 0.8 mg L^−1 of insulin for MCF-7 and SK-BR-3. The RPMI medium was supplemented with 2 mM L-glutamine, 1 mM sodium pyruvate and 10% fetal bovine serum. The RPMI 1640 + Opti-MEM (1:1) medium was supplemented with 2 mM L-glutamine, 5% fetal bovine serum (PC-3, A549) and 0.8 mg L^−1 insulin (T47D) or 1 mM sodium pyruvate (HT-29, LoVo, LoVoDx) and 0.1 ug/mL doxorubicin (LoVo/Dx). The media contained antibiotics: 100 µg mL^−1 streptomycin and 100 U mL^−1 penicillin. All the cell lines were incubated at 37 °C in a humid atmosphere saturated with 5% CO2.
The details of this technique were described by Skehan et al.. […] The unbound dye was removed by washing the plates five times with 1% acetic acid, whereas the stain bound to the cells was extracted with 150 µL of 10 mM unbuffered Tris base for determination of the optical density at a 540 nm wavelength in a computer-interfaced, 96-well microtiter plate reader–Multiskan FC photometer (Thermo Scientific, Waltham, MA, USA). The background optical density was measured in the wells filled with culture medium, without the cells.
Twenty-four hours before incubation with the tested compounds, the cells were seeded in 96-well plates (Sarstedt, Nümbrecht, Germany) at a density of 10^4 cells per well (10^3 cells per well for HLMEC) in 100 µL of culture medium. […] The results were calculated as the IC50 (μM) (half maximal inhibitory concentration), i.e., the concentration of the tested agent that inhibits the proliferation of the cancer cell population by half. […]

[5] = tested on: LoVo human colorectal adenocarcinoma cells; test: In vitro antiproliferative assay (SRB), LoVo
Text: as §1, §2

[6] = tested on: LoVo/Dx doxorubicin-resistant human colorectal adenocarcinoma cells; test: In vitro antiproliferative assay (SRB), LoVo/Dx
Text: as §1, §2

[7] = tested on: PC-3 human prostate adenocarcinoma cells; test: In vitro antiproliferative assay (SRB), PC-3
Text: as §1, §2

[8] = tested on: Du145 human prostate carcinoma cells; test: In vitro antiproliferative assay (SRB), Du145
Text: as §1, §2

[9] = tested on: A549 human lung adenocarcinoma cells; test: In vitro antiproliferative assay (SRB), A549
Text: as §1, §2

[10] = tested on: MV-4-11 human myelomonocytic leukemia cells; test: In vitro antiproliferative assay (MTT), MV-4-11
Text: as §3, with “The media contained antibiotics: 100 µg mL^−1 streptomycin and 100 U mL^−1 penicillin. All the cell lines were incubated at 37 °C in a humid atmosphere saturated with 5% CO2.” left out
The details of this technique were described by Antoszczak et al.. The proliferation inhibition of human myelomonocytic leukemia (MV-4-11) by the tested compounds was measured using the MTT assay. […] The plates were incubated for 24 h for the formazan crystals to be released from the cells and dissolved, and then the absorbance of each well was read on a 96-well microtiter plate reader (Multiskan FC photometer (Thermo Scientific)) at a 570 nm wavelength.
Twenty-four hours before incubation with the tested compounds, the cells were seeded in 96-well plates (Sarstedt, Nümbrecht, Germany) at a density of 10^4 cells per well (10^3 cells per well for HLMEC) in 100 µL of culture medium. […] The results were calculated as the IC50 (μM) (half maximal inhibitory concentration), i.e., the concentration of the tested agent that inhibits the proliferation of the cancer cell population by half. The IC50 values and the mean values ± SD calculated for each experiment separately using GraphPad Prism software (GraphPad Software 9.1.0, San Diego, CA, USA) are presented in Table S1 in the Supplementary Materials.

Structure (SMILES): N.N.[Cl][Pt][Cl] [Cisplatin, cisplatin, reference compound]
- Calculated selectivity index SIB ([1]; IC50 BALB/3T3/IC50 MCF-7): 0.79
- Calculated selectivity index SIA ([1]; IC50 HLMEC/IC50 MCF-7): 0.11
- Calculated selectivity index SIB ([2]; IC50 BALB/3T3/IC50 SK-BR-3): 0.42
- Calculated selectivity index SIA ([2]; IC50 HLMEC/IC50 SK-BR-3): 0.06
- Calculated selectivity index SIB ([3]; IC50 BALB/3T3/IC50 T47D): 0.69
- Calculated selectivity index SIA ([3]; IC50 HLMEC/IC50 T47D): 0.10
- antiproliferative activity relative to aurone (2), more active ([4]; HT-29, cisplatin vs aurone (2)): 3.3 fold
- antiproliferative activity relative to xanthohumol (1), more active ([4]; HT-29, cisplatin vs xanthohumol (1)): 4.8 fold
- Calculated selectivity index SIB ([4]; IC50 BALB/3T3/IC50 HT-29): 0.47
- Calculated selectivity index SIA ([4]; IC50 HLMEC/IC50 HT-29): 0.07
- Calculated selectivity index SIB ([5]; IC50 BALB/3T3/IC50 LoVo): 2.07
- Calculated selectivity index SIA ([5]; IC50 HLMEC/IC50 LoVo): 0.29
- Calculated selectivity index SIB ([6]; IC50 BALB/3T3/IC50 LoVo/Dx): 1.00
- Calculated selectivity index SIA ([6]; IC50 HLMEC/IC50 LoVo/Dx): 0.14
- Calculated selectivity index SIB ([7]; IC50 BALB/3T3/IC50 PC-3): 0.59
- Calculated selectivity index SIA ([7]; IC50 HLMEC/IC50 PC-3): 0.08
- Calculated selectivity index SIB ([8]; IC50 BALB/3T3/IC50 Du145): 0.96
- Calculated selectivity index SIA ([8]; IC50 HLMEC/IC50 Du145): 0.13
- Calculated selectivity index SIB ([9]; IC50 BALB/3T3/IC50 A549): 0.79
- Calculated selectivity index SIA ([9]; IC50 HLMEC/IC50 A549): 0.11
- Calculated selectivity index SIB ([10]; IC50 BALB/3T3/IC50 MV-4-11): 8.07
- Calculated selectivity index SIA ([10]; IC50 HLMEC/IC50 MV-4-11): 1.14
- antiproliferative activity relative to aurone (2), more active ([10]; MV-4-11, cisplatin vs aurone (2)): 6.7 fold
- antiproliferative activity relative to xanthohumol (1), more active ([10]; MV-4-11, cisplatin vs xanthohumol (1)): 7.3 fold
